Structures can show the parent of a compound that is named as a salt. The list shows a part of the results. The calls rarely recur for the same compound in another form.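 Kinases were expressed as nanoluciferase fusions in K562 cells and luminescence was read every 4 h between 2 and 18 h as percent of control, DMSO set to 100% and a positive control to 0%. A time point counts as decreased when the signal drops significantly (2 sigma). The hit call is the authors' own, does not follow from the count of time points alone, and its rule is not shown.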
Experiments:
Assay in all cases: number of time points (of 5) at which kinase-Nluc abundance scored as decreased, DMSO-normalised (count); higher = more persistent destabilization
Conditions in all cases: K562; 2-18 h
LMTK2 = LMTK2 (UniProt Q8IWU2)
LYN = LYN (UniProt P07948)
MAP2K1 = MAP2K1 (UniProt Q02750)
MAP2K2 = MAP2K2 (UniProt P36507)
MAP4K2 = MAP4K2 (UniProt Q12851)
MAPK1 = MAPK1 (UniProt P28482)
MAPK4 = MAPK4 (UniProt P31152)
MAPKAPK2 = MAPKAPK2 (UniProt P49137)
MKNK1 = MKNK1 (UniProt Q9BUB5)
NTRK2 = NTRK2 (UniProt Q16620)

Chains of the proteins cited; added tags and fusions are not shown. Lines headed by an entry give the natural chain unless they say otherwise; changes in a name come on top.
UniProt Q8IWU2: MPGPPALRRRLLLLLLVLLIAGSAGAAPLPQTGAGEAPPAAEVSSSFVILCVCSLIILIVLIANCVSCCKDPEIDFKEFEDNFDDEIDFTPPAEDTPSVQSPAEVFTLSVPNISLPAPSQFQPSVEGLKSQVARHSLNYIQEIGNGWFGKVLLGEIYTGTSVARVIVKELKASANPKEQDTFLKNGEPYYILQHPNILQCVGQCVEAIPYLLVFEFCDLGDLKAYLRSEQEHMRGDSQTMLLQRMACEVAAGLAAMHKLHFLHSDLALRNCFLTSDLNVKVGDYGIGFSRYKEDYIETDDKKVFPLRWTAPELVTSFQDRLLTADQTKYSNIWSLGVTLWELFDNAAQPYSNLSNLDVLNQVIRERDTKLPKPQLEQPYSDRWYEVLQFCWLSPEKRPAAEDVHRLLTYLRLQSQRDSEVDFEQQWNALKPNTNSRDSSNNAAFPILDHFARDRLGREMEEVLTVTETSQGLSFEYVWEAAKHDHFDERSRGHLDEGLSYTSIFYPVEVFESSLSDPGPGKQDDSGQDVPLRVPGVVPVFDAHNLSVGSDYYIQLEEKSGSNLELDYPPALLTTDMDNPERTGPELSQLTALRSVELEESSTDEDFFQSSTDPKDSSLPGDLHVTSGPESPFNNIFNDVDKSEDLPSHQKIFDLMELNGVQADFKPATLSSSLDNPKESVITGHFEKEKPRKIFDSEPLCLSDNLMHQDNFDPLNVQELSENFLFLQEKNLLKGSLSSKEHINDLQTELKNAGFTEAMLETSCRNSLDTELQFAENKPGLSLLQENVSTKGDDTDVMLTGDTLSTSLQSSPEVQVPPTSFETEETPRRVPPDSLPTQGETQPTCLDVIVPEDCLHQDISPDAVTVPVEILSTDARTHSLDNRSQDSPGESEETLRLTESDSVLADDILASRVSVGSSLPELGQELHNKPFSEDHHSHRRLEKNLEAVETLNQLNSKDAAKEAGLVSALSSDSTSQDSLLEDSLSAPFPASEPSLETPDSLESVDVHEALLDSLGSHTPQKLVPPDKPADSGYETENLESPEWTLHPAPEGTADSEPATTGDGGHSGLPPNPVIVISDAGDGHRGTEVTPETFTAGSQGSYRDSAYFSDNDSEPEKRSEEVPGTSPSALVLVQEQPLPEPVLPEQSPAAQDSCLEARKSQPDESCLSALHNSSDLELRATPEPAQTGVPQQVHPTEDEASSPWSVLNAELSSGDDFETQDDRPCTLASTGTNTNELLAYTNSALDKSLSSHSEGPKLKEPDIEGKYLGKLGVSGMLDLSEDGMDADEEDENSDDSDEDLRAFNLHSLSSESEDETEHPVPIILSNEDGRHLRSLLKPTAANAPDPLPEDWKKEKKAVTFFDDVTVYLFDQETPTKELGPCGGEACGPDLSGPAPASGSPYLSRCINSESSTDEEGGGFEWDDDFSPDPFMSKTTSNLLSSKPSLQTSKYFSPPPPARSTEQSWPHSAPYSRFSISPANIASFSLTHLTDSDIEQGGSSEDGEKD
UniProt P07948: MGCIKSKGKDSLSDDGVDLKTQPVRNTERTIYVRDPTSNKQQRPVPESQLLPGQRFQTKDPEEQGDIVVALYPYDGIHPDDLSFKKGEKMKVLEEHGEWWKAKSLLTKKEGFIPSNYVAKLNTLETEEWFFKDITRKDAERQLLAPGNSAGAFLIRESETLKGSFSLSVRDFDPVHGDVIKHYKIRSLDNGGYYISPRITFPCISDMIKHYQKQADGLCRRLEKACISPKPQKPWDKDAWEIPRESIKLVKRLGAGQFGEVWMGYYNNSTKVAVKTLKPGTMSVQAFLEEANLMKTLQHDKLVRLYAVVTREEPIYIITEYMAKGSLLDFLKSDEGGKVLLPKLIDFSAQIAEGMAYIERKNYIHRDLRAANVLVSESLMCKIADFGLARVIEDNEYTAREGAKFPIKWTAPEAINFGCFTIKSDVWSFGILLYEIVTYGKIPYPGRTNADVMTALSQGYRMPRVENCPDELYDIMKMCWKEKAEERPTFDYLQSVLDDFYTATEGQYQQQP
UniProt Q12851: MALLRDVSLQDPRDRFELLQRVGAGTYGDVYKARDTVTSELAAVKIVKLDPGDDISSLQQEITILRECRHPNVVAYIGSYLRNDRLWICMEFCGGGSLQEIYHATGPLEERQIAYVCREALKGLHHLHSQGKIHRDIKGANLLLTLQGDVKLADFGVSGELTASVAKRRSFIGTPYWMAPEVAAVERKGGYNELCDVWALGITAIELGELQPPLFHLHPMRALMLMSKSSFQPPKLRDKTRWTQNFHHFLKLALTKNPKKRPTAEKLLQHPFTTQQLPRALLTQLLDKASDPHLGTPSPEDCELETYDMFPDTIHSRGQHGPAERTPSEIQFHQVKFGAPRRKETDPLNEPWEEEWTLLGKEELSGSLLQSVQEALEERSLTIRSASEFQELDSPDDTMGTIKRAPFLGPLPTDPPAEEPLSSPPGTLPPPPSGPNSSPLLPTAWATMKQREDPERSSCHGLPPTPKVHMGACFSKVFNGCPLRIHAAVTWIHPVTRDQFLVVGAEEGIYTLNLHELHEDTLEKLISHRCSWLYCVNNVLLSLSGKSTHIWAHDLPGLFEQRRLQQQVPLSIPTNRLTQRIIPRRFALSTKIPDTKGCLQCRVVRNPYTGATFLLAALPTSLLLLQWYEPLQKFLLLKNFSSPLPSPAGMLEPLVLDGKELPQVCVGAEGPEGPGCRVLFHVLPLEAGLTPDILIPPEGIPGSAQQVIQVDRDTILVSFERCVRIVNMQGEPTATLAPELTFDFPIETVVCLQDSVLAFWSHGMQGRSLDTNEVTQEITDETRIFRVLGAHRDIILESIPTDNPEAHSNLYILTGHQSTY
UniProt P28482, whole entry: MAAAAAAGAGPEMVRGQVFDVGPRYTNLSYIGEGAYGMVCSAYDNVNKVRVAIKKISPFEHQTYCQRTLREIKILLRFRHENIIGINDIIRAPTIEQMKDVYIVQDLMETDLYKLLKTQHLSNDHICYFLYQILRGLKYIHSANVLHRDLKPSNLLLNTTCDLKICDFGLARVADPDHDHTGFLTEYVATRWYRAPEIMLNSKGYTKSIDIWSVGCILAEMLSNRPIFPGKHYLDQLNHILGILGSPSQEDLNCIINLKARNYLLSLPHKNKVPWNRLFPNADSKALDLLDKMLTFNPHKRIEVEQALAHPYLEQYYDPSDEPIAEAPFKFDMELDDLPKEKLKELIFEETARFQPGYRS
UniProt P31152, whole entry: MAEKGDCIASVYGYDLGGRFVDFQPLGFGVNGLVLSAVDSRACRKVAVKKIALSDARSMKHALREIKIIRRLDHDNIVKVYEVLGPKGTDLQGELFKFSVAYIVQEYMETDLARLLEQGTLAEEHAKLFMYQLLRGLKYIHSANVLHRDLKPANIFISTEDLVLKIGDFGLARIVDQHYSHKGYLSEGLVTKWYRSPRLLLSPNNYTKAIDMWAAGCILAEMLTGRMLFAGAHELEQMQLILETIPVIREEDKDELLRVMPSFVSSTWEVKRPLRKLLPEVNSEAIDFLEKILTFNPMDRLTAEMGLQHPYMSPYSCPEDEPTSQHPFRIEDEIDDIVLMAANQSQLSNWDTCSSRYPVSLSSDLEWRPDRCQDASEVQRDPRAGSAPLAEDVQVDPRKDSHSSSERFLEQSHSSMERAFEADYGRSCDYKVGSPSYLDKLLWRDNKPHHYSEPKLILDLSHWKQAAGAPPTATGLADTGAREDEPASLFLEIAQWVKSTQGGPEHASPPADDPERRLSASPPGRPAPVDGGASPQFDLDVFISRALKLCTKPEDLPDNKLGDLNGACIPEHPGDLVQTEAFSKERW
UniProt P49137, whole entry, looked up: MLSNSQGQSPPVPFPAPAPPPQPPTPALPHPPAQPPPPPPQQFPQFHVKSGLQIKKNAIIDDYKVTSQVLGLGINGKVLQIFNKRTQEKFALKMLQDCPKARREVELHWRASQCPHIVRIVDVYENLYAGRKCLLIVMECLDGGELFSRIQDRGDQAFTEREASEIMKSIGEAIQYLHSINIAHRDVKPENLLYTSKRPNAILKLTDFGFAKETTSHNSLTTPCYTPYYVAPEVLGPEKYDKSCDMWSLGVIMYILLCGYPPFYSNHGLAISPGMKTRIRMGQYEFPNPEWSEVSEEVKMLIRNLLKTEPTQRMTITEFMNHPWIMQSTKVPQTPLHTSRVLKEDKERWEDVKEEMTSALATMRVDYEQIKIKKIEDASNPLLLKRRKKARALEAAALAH
UniProt Q9BUB5: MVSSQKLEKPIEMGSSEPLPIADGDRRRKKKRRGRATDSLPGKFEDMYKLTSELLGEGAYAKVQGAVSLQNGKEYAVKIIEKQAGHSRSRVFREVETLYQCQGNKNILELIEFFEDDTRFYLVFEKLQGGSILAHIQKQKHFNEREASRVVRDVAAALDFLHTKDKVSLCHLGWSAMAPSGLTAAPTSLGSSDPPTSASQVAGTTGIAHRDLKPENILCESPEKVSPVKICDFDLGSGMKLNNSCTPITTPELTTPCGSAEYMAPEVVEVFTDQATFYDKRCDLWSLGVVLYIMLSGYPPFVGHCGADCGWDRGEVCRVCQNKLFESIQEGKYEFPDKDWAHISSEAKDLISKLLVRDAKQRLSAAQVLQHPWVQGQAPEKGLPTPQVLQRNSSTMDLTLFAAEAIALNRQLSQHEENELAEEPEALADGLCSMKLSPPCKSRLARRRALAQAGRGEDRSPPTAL
UniProt Q16620, whole entry, looked up: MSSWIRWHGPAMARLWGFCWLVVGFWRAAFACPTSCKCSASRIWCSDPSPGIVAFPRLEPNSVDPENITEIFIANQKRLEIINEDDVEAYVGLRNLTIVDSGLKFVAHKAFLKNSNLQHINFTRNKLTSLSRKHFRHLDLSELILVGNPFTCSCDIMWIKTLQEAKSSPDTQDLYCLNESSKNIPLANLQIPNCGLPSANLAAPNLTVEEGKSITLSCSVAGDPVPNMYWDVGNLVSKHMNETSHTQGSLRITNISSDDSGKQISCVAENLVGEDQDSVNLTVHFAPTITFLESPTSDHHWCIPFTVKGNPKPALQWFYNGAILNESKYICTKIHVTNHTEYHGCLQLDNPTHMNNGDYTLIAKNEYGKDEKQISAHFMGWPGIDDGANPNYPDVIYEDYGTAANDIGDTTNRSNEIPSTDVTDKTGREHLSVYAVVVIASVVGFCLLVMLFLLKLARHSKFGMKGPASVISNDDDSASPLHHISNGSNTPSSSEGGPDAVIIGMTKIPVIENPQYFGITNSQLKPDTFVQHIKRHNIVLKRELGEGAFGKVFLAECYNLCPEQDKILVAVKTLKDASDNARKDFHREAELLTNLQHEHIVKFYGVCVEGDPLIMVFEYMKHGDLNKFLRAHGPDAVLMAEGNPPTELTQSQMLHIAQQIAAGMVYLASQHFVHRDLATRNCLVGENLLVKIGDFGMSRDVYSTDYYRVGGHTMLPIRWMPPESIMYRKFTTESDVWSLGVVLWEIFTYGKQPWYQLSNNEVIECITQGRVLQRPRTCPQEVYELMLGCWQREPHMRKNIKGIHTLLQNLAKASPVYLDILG

Row | Compound | number of time points (LMTK2) | number of time points (LYN) | number of time points (MAP2K1) | number of time points (MAP2K2) | number of time points (MAP4K2) | number of time points (MAPK1) | number of time points (MAPK4) | number of time points (MAPKAPK2) | number of time points (MKNK1) | number of time points (NTRK2)
1 | Nc1ccc(-c2cnc(N)c(-c3ccc(Cl)cc3)c2)cn1 (10 µM) | 0 | 0 | 0 | 0 | 0 | 0 | 0 | 0 | 0 | 0
2 | CCCCCCCCCCCCC/C=C/[C@@H](O)[C@@H](N)CO [D-erythro-Sphingosine] (2.5 µM) | 0 | 0 | 0 | 0 | 0 | 0 | 0 | 0 | 0 | 0
3 | Nc1nc2ccc(Cl)cc2c2nc(-c3ccco3)nn12 (10 µM) | 0 | 0 | 0 | 0 | 0 | 0 | 0 | 0 | 0 | 0
4 | Cc1cc(O)c2c(c1)C(=O)c1cc(O)cc(O)c1C2=O [Emodin] (10 µM) | 0 | 0 | 0 | 0 | 0 | 0 | 0 | 0 | 0 | 0
5 | Cn1cc(-c2ccc3c(c2)CCN3C(=O)Cc2cccc(C(F)(F)F)c2)c2c(N)ncnc21 (2.5 µM) | 0 | 0 | 0 | 0 | 0 | 0 | 0 | 0 | 0 | 0
6 | CC(C)(C)c1nc(-c2cccc(NS(=O)(=O)c3c(F)cccc3F)c2F)c(-c2ccnc(N)n2)s1 [Dabrafenib] (2.5 µM) | 0 | 0 | 0 | 0 | 0 | 0 | 0 | 0 | 0 | 0
7 | Cn1nccc1Nc1nccc(-c2ccn([C@H](CO)c3ccc(Cl)c(F)c3)c(=O)c2)n1 [Ravoxertinib] (10 µM) | 0 | 0 | 0 | 0 | 0 | 0 | 0 | 0 | 0 | 0
8 | Cc1[nH]c(/C=C2\C(=O)Nc3ccccc32)c(C)c1CCC(=O)O [Orantinib] (10 µM) | 0 | 0 | 0 | 0 | 0 | 0 | 0 | 0 | 0 | 0
9 | O=C1N[C@@H](Cc2c[nH]c3ccccc23)C(=O)N2CCC[C@@H]12 [Brevianamide F] (10 µM) | 0 | 0 | 0 | 0 | 0 | 0 | 0 | 0 | 0 | 0
10 | CC(=O)c1c(C)cc2cccc(O)c2c1O [Nepodin] (10 µM) | 0 | 0 | 0 | 0 | 0 | 0 | 0 | 0 | 0 | 0
11 | COc1cc(Nc2ncc(F)c(Nc3ccc4c(n3)N(COP(=O)(O)O)C(=O)C(C)(C)O4)n2)cc(OC)c1OC [Fostamatinib Disodium] (10 µM) | 0 | 0 | 0 | 0 | 0 | 0 | 0 | 0 | 0 | 0
12 | Cc1ccc(C(=O)Nc2ccc(Oc3cc4cnn(C)c4cc3-c3cn[nH]c3)c(F)c2)c(=O)n1-c1ccc(F)cc1 [Merestinib] (2.5 µM) | 0 | 0 | 0 | 0 | 0 | 0 | 0 | 0 | 0 | 0
13 | O=C(Nc1ccc(CN2CCOCC2)cc1)c1ccc(-c2cccc(Cl)c2)o1 (10 µM) | 1 | 0 | 0 | 0 | 0 | 0 | 0 | 0 | 0 | 0
14 | Cc1cc(=O)oc2c(C=O)c(O)ccc12 (10 µM) | 0 | 0 | 0 | 0 | 0 | 0 | 0 | 0 | 0 | 0
15 | Nc1ncnc2c1c(-c1cccc(OCc3ccccc3)c1)cn2C1CC(CN2CCC2)C1 (stereo not given) (2.5 µM) | 0 | 0 | 0 | 0 | 0 | 0 | 0 | 0 | 0 | 0
16 | Oc1cc(O)c2cc(O)c(-c3cc(O)c(O)c(O)c3)[o+]c2c1 [Delphinidin (chloride)] (10 µM) | 0 | 1 | 0 | 0 | 0 | 2 | 0 | 0 | 0 | 0
17 | Cn1nccc1Nc1nccc(-c2ccn([C@H](CO)c3ccc(Cl)c(F)c3)c(=O)c2)n1 [Ravoxertinib hydrochloride] (10 µM) | 0 | 0 | 0 | 0 | 0 | 0 | 0 | 0 | 0 | 0

Limited to number of time points (MAP2K2), for some of the entries so far:
Row	Compound	number of time points (MAP2K2)
2	CCCCCCCCCCCCC/C=C/[C@@H](O)[C@@H](N)CO [D-erythro-Sphingosine] (2.5 µM)	0
8	Cc1[nH]c(/C=C2\C(=O)Nc3ccccc32)c(C)c1CCC(=O)O [Orantinib] (10 µM)	0

(further entries)

Row | Compound | number of time points (LMTK2) | number of time points (LYN) | number of time points (MAP2K1) | number of time points (MAP2K2) | number of time points (MAP4K2) | number of time points (MAPK1) | number of time points (MAPK4) | number of time points (MAPKAPK2) | number of time points (MKNK1) | number of time points (NTRK2)
18 | Cn1cc(-c2cnn3c(N)c(Br)c([C@@H]4CCCNC4)nc23)cn1 (2.5 µM) | 1 | 1 | 0 | 0 | 0 | 0 | 0 | 0 | 1 | 2
19 | CCS(=O)(=O)c1ncc(Cl)c(C(=O)N(Cc2ccc(Cl)cc2)Cc2ccco2)n1 (2.5 µM) | 0 | 0 | 0 | 0 | 0 | 0 | 0 | 0 | 0 | 0
20 | CCc1c(C(=O)NNC(=O)C(O)c2cc(F)cc(F)c2)ccc(O)c1C (stereo not given) (10 µM) | 0 | 0 | 0 | 0 | 0 | 0 | 0 | 0 | 0 | 0
21 | COc1ccc(Cl)c(Nc2nc3ccccc3nc2NS(=O)(=O)c2cccc(NC(=O)C(C)(C)N)c2)c1 [Pilaralisib] (10 µM) | 0 | 0 | 0 | 0 | 0 | 0 | 0 | 0 | 0 | 0
22 | NC(=O)c1ccc2[nH]ccc2c1 (10 µM) | 0 | 0 | 0 | 0 | 0 | 0 | 0 | 0 | 0 | 0
23 | C[C@@H]1COCCN1c1cc(C2([S@@](C)(=N)=O)CC2)nc(-c2ccnc3[nH]ccc23)n1 [(S)-Ceralasertib] (10 µM) | 0 | 0 | 0 | 0 | 0 | 0 | 0 | 0 | 0 | 0
24 | CN1CCN(c2cnc3c(C4CCN(C(=O)c5ccc(OC(F)(F)F)cc5N)CC4)ncnc3c2)CC1 (10 µM) | 0 | 0 | 0 | 0 | 0 | 0 | 0 | 0 | 0 | 0
25 | CN1CCN(c2cccc(Nc3nc4c(-c5ccc(S(C)(=O)=O)cc5)cccn4n3)c2)CC1 (10 µM) | 0 | 0 | 0 | 0 | 0 | 0 | 0 | 0 | 0 | 0
26 | CCN1CCN(Cc2ccc(Nc3ncc(F)c(-c4cc(F)c5nc(C)n(C(C)C)c5c4)n3)nc2)CC1 [Abemaciclib (methanesulfonate)] (10 µM) | 3 | 0 | 0 | 0 | 0 | 0 | 0 | 0 | 0 | 4
27 | CS(=O)(=O)Nc1cc(-c2ccc3ncnc(Nc4ccc(F)c(Cl)c4)c3c2)cnc1Cl (2.5 µM) | 0 | 0 | 0 | 0 | 0 | 0 | 0 | 0 | 0 | 0
28 | NS(=O)(=O)c1ccc(-n2nc(C(F)(F)F)cc2-c2ccc(Cl)cc2)cc1 (10 µM) | 0 | 0 | 0 | 0 | 0 | 0 | 0 | 0 | 0 | 0
29 | FC(F)c1nc2ccccc2n1-c1nc(N2CCOCC2)nc(N2CCOCC2)n1 (2 µM) | 0 | 0 | 0 | 0 | 0 | 0 | 0 | 0 | 0 | 0
30 | Cc1ccc2nc(NCCN)c3ncc(C)n3c2c1 (2.5 µM) | 0 | 0 | 0 | 0 | 0 | 0 | 0 | 0 | 0 | 0
31 | Cn1cnc2c(F)c(Nc3ccc(Br)cc3Cl)c(C(=O)NOCCO)cc21 [Selumetinib] (10 µM) | 0 | 0 | 0 | 0 | 0 | 0 | 0 | 0 | 0 | 0
32 | COc1ccc2c(OCc3nnc4ccc(-c5ccccc5)nn34)ccnc2c1 (2 µM) | 0 | 0 | 0 | 0 | 0 | 0 | 0 | 0 | 0 | 0
33 | Cc1ccccc1-n1c([C@H](C)Nc2nc(N)nc3nc[nH]c23)nc2cccc(C)c2c1=O [CAL-130 (Hydrochloride)] (10 µM) | 0 | 0 | 0 | 0 | 0 | 0 | 0 | 0 | 0 | 0

Source: the supplement of paper PMC12823440, “Inhibitors supercharge kinase turnover through native proteolytic circuits” (Nature, 2025)
